Results are given in words; binding and its absence hold for the method and conditions named. Binding seen in cells or lysates may run through a third protein. These calls come from enrichment with a bait or labelling near it, and not all partners need be listed. Sequences can lack the tags named with a protein.
Target: T1, GFP-Rab41 (human) (UniProt Q5JT25)
T1 sequence: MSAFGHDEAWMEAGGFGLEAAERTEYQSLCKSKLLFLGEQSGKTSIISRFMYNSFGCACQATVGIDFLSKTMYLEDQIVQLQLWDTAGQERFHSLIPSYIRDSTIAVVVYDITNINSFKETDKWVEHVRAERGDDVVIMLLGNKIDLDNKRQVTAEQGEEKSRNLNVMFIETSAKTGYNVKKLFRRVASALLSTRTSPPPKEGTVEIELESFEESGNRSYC
Test: affinity purification with mass spectrometry; HEK293T expressing GFP or GFP-Rab41, treated with DMSO or LLOMe; GFP-Trap beads; n = 4; proteins found in the GFP-only condition removed

Chains of the proteins cited; added tags and fusions are not shown.
UniProt Q00610: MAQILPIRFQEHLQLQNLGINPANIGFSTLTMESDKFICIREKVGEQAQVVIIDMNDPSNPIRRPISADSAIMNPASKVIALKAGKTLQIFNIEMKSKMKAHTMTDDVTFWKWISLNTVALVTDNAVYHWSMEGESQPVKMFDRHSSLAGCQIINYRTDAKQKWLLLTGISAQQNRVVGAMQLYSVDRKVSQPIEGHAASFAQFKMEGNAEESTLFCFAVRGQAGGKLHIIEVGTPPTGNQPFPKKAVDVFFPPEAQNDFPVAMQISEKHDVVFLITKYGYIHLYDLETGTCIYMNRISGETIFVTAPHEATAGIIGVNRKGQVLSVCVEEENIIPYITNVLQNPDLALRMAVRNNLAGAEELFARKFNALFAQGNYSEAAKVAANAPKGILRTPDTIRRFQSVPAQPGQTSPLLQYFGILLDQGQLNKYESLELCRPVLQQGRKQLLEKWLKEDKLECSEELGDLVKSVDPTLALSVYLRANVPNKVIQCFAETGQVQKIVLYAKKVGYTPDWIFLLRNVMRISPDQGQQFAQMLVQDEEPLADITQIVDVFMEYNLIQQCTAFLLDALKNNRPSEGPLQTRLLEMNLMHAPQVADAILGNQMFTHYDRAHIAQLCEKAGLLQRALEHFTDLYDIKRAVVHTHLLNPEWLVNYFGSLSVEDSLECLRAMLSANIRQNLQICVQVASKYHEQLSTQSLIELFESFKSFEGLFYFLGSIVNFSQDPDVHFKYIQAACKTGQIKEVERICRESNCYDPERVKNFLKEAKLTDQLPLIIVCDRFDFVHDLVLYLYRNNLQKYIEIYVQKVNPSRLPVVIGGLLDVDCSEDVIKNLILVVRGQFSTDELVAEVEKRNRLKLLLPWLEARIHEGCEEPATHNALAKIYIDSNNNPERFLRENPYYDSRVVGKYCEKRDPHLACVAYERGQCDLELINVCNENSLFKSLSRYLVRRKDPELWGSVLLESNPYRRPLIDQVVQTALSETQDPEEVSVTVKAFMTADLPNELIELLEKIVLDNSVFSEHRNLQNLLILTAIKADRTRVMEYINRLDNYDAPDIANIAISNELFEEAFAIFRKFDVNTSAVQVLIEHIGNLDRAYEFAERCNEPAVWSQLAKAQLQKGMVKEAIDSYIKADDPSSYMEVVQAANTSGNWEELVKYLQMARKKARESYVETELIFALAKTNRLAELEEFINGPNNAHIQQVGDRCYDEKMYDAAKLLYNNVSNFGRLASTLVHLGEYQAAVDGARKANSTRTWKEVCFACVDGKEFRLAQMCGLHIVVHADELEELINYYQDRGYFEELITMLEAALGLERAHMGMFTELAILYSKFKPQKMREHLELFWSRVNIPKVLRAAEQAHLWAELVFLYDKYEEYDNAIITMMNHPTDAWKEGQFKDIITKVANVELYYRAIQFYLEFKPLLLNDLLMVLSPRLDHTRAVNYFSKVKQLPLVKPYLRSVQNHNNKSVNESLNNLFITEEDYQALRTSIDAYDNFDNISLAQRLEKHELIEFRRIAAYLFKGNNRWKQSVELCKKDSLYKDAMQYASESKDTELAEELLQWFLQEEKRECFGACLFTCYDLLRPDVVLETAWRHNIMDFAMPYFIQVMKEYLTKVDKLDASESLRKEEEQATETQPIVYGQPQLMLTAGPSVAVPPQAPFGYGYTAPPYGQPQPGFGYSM
UniProt P35579: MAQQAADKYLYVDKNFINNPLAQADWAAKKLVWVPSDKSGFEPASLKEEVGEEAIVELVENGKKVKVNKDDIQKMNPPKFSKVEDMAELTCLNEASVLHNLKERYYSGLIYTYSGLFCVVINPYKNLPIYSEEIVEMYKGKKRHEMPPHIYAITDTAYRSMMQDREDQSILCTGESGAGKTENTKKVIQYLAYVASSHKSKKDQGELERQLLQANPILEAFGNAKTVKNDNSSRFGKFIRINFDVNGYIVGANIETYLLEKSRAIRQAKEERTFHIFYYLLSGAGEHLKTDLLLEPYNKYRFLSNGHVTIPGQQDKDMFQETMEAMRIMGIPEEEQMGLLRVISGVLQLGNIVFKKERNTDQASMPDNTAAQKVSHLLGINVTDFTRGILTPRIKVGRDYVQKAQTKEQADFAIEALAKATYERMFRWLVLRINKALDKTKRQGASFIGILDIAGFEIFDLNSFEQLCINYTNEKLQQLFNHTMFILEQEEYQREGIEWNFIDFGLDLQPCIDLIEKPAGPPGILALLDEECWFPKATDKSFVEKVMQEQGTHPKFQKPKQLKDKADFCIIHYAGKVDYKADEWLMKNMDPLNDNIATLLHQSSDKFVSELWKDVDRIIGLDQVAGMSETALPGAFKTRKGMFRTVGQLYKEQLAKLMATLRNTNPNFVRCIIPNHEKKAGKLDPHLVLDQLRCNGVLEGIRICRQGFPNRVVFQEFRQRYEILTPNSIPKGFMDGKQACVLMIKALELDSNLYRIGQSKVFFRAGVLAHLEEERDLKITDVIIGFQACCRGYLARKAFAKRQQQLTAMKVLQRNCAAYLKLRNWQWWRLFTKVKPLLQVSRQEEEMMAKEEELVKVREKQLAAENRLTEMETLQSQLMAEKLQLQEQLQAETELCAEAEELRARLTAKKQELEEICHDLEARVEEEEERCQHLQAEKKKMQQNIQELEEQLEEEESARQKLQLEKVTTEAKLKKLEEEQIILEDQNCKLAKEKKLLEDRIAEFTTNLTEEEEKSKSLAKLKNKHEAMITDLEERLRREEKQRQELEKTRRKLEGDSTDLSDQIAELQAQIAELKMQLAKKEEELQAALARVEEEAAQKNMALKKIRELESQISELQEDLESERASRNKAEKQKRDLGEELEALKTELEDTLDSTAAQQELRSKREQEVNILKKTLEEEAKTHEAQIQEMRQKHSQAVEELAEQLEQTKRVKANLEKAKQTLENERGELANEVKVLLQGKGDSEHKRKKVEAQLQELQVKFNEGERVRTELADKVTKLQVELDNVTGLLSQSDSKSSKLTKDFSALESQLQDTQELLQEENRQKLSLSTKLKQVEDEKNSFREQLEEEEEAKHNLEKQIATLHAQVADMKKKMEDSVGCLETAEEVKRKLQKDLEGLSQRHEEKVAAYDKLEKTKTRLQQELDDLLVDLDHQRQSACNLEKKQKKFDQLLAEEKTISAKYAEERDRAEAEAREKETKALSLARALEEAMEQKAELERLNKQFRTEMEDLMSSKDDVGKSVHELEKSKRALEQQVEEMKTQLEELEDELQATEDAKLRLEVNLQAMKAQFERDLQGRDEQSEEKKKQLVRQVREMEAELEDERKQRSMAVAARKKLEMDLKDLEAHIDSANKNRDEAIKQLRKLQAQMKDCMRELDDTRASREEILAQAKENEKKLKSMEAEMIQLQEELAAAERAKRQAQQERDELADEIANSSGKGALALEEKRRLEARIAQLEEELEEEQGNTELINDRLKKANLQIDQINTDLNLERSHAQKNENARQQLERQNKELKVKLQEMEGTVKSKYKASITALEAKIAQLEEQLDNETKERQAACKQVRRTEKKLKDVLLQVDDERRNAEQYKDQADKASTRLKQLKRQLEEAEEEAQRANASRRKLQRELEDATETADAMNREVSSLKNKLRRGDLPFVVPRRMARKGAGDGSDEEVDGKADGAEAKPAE
UniProt Q99942: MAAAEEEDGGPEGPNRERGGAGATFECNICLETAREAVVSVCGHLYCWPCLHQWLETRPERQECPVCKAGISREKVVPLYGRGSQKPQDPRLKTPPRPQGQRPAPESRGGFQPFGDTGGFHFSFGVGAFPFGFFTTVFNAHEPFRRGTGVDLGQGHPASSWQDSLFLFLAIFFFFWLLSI

Q: For CLTC (from UniProt Q00610 1-1675), which binding is on record?
A: Its binding is “binds”.

Q: How did the binding turn out when MYH9 (from UniProt P35579 1-1960) was run?
A: Its binding is “binds”.

Q: How did the binding turn out when RNF5 (from UniProt Q99942 1-180) was run?
A: The binding was “binds”.

From paper PMC10558455
